Source: publication PMC9373822
No constants are given. Whether binding was seen depends on the method and setting. For some assays here: In cells and extracts the contact can be indirect. Some binding calls cover weakened binding; strength is not graded here. For some assays here: Where a sequence is shown, tags or fusion partners need not be part of it. One block for each substance: values may come before it.

The chains behind the UniProt entries cited, without tags or fusion partners.
UniProt Q02111: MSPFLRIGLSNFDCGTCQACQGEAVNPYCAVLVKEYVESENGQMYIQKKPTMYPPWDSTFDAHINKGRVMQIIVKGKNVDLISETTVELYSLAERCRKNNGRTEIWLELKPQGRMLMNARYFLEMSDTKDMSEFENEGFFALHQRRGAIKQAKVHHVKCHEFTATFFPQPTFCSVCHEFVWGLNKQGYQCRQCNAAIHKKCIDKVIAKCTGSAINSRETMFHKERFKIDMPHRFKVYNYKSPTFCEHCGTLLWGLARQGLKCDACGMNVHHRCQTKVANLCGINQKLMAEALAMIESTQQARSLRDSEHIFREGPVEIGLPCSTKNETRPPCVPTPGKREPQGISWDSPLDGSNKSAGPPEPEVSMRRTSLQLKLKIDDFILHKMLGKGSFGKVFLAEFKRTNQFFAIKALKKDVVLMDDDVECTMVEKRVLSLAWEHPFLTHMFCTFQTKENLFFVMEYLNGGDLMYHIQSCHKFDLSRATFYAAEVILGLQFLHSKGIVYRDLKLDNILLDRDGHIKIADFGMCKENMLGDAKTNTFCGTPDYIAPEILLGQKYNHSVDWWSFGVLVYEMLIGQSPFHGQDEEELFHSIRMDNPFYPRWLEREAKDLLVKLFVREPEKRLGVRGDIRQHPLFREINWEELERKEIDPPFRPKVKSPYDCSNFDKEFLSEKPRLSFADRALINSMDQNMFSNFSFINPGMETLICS
UniProt Q12778: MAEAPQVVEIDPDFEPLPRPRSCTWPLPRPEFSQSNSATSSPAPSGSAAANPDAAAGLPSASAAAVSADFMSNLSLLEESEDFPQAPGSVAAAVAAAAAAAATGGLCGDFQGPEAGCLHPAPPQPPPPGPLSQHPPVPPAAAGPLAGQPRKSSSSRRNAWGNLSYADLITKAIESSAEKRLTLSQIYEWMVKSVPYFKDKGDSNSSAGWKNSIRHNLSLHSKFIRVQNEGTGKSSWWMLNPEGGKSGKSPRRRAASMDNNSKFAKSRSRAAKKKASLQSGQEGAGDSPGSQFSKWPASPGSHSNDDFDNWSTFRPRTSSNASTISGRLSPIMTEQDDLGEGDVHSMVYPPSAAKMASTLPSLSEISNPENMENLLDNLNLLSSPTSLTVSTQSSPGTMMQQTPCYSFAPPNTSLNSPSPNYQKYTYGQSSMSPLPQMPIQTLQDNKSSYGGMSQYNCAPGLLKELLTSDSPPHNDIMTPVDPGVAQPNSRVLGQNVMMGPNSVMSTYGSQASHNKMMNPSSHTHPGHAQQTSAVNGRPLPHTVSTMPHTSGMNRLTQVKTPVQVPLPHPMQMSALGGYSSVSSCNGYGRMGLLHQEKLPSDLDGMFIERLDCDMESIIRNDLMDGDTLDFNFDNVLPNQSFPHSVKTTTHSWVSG
UniProt Q99JP0: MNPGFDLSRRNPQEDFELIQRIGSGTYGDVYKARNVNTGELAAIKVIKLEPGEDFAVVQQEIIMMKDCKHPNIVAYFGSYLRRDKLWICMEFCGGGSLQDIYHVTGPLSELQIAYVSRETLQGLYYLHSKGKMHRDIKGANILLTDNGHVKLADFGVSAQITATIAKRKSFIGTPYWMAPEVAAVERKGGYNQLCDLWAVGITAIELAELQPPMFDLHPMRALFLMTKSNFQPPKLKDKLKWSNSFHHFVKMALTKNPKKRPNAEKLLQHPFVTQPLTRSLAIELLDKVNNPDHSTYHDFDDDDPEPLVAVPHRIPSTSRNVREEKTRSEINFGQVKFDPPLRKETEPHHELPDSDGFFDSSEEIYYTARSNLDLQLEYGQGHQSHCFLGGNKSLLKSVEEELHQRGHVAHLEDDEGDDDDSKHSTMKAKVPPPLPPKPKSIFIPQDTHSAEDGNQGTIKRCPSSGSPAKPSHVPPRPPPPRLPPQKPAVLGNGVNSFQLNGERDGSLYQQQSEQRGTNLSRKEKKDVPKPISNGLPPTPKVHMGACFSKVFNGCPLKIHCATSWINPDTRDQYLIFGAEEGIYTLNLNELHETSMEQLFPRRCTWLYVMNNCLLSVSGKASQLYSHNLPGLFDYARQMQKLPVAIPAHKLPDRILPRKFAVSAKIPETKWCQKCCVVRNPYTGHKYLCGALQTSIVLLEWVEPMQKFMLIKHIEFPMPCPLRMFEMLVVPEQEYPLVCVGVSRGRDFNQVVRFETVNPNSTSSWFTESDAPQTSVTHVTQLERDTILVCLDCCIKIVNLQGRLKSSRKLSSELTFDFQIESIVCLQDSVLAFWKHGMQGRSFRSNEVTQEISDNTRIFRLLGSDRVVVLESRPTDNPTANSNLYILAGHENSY
UniProt Q8IVH8: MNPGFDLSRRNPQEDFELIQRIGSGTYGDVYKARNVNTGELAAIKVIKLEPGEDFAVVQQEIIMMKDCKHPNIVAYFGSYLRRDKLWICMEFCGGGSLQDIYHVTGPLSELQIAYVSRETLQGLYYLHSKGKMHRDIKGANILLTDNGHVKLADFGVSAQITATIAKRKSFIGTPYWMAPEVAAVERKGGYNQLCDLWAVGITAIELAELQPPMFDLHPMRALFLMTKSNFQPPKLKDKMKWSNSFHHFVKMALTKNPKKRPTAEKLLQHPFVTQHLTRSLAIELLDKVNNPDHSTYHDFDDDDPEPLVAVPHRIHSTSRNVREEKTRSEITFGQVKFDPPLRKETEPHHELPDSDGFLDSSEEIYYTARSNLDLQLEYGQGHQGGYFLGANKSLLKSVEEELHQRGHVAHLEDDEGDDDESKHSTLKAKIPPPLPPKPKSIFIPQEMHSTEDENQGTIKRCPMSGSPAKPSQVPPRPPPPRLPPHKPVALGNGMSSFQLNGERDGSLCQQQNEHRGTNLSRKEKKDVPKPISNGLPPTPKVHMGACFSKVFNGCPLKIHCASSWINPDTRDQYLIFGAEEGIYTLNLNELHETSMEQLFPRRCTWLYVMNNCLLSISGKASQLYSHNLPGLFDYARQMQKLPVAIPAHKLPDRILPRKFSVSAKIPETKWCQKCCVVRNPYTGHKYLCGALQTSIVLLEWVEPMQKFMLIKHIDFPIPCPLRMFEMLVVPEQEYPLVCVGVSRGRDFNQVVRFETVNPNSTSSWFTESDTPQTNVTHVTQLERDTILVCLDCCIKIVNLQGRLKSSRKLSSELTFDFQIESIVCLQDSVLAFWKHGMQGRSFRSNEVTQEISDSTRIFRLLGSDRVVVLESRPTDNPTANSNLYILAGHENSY
UniProt Q9R1E0: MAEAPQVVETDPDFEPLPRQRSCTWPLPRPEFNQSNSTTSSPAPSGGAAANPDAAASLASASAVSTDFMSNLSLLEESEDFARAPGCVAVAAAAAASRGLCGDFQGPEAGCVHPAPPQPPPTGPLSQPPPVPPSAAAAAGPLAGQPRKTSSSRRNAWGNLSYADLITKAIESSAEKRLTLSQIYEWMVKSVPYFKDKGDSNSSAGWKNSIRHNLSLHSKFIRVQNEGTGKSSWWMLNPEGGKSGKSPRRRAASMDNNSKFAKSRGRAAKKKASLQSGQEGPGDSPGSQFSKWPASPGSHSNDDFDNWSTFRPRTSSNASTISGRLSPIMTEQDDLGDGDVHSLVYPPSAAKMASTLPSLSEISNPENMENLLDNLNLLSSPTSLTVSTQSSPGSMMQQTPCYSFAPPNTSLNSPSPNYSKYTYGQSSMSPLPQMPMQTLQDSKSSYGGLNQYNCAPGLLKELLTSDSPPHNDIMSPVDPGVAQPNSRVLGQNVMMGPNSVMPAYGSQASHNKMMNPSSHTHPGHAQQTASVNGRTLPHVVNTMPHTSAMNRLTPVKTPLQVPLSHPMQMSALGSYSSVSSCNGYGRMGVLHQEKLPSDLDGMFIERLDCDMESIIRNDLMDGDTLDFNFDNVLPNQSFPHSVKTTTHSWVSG

Columns and labels:
GST-tagged IKKβ = target: T1, GST-tagged IKKβ (UniProt O14920); assay: pull-down; in vitro binding assay (GST pulldown) with purified Flag-tagged FoxO1 and GST-tagged IKKβ; both purified
T1 sequence: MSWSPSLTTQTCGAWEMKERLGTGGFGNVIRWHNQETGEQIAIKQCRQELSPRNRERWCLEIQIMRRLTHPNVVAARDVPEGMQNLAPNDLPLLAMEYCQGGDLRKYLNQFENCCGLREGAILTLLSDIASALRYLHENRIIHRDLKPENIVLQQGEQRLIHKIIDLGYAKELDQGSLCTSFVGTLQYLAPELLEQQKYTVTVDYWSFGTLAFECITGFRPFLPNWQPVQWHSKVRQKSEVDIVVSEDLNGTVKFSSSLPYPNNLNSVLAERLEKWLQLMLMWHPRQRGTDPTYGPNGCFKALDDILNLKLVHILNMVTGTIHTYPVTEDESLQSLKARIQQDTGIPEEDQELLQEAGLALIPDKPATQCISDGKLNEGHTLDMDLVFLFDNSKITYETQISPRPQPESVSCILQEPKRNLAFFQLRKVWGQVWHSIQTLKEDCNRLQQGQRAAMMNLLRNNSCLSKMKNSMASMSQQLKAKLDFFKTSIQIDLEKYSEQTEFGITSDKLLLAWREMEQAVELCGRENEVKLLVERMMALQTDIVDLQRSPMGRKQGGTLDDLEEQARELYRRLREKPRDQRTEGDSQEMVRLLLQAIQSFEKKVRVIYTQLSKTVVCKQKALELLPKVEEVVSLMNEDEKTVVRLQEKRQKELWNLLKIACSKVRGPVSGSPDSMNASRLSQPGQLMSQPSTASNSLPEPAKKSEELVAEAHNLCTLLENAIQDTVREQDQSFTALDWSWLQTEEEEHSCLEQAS

[1] = target: T2, endogenous IKKβ of murine T cells (mouse (endogenous in murine T cells)) (UniProt O88351); assay: proximity ligation; in situ PLA (Duolink) of endogenous proteins in iTreg cells differentiated in vitro from T cells of wild-type and Lck-GLK Tg mice; within 40 nm
T2 sequence: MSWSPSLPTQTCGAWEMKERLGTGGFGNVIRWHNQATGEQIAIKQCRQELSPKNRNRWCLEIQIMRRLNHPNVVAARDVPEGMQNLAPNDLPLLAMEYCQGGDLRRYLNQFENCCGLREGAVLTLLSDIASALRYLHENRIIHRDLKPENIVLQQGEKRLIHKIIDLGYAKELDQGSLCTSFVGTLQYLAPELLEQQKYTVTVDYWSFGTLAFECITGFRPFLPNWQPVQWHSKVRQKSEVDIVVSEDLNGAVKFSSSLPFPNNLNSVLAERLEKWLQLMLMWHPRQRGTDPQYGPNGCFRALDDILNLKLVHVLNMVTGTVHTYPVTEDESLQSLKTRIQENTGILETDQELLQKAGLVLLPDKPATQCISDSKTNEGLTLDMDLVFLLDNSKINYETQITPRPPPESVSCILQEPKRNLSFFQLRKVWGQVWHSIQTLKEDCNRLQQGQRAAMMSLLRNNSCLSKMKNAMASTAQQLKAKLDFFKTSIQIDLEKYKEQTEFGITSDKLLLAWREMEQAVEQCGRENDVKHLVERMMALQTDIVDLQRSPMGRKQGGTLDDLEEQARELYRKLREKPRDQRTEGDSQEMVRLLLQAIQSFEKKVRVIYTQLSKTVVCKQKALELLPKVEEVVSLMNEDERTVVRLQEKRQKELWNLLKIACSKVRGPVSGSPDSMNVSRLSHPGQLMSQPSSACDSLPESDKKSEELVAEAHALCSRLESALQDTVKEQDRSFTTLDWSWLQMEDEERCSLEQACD

[2] = target: T2, endogenous IKKβ of murine T cells (mouse (endogenous in murine T cells)); assay: proximity ligation; in situ PLA (Duolink) in T cells from wild-type, Lck-GLK Tg and Lck-GLK Tg/PKCθ KO mice; stimulated with anti-CD3 antibodies plus streptavidin (3 μg/ml); within 40 nm
[3] = target: endogenous PKCθ of murine T cells (mouse (endogenous in murine T cells)) (UniProt Q02111); assay: as above
HA-tagged IKKβ [4] = target: T3, HA-tagged IKKβ (UniProt O14920); assay: co-IP; lysates of transfected HEK293T cells; tagged proteins, immunoblotting; performed as in ref. 13
T3 sequence: T1 sequence

Flag-tagged FoxO1 = Flag-tagged FoxO1 (UniProt Q12778); assay: AlphaScreen or HTRF; ALPHA with donor/acceptor AlphaLISA beads in lysates of HEK293T transfectants; signal within 200 nm
CFP-fused IKKβ = target: T4, CFP-fused IKKβ (UniProt O14920); assay: FRET or BRET; YFP-FoxO1 and CFP-IKKβ co-transfected into HEK293T cells; plate reader; signal within 8 nm
T4 sequence: T1 sequence

HA-tagged IKKβ [5] = target: T3, HA-tagged IKKβ; assay: AlphaScreen or HTRF; ALPHA with donor/acceptor AlphaLISA beads in lysates of HEK293T transfectants; signal within 200 nm

Substance: endogenous GLK of wild-type murine T cells (from UniProt Q99JP0 1-894) (enzyme)
binding [2]: no binding
binding [3]: binds

Substance: GLK of Lck-GLK transgenic T cells (full-length human GLK transgene) (from UniProt Q8IVH8 1-894) (enzyme)
binding [2]: binds
binding [3]: binds

Substance: Flag-tagged GLK (from UniProt Q8IVH8 1-894) (enzyme)
binding (HA-tagged IKKβ [4]): binds
binding (Flag-tagged FoxO1): no binding

Substance: Flag-tagged FoxO1 (from UniProt Q12778 1-655)
binding (HA-tagged IKKβ [4]): binds
binding (HA-tagged IKKβ [5]): binds

Second part, the substance after the results:

binding (GST-tagged IKKβ): binds
Substance: Purified Flag-tagged FoxO1 (from UniProt Q12778 1-655)

binding [1]: binds
Substance: endogenous FoxO1 of murine iTreg cells (from UniProt Q9R1E0 1-652)

binding (CFP-fused IKKβ): binds
Substance: YFP-fused FoxO1 (from UniProt Q12778 1-655)
